Measured values taken from the supplement of paper PMC12819154, “High-throughput peptide-centric local stability assay extends protein–ligand identification to membrane proteins, tissues and bacteria” (Nature Structural & Molecular Biology, 2025).
This is one part of the list. Most values lie at the level of the controls, where differences are scatter.

Protein sequences, listed by entry. Tags and fused reporters are not part of them. Lines headed by an entry give the natural chain unless they say otherwise; changes in a name come on top.
UniProt Q9CX66: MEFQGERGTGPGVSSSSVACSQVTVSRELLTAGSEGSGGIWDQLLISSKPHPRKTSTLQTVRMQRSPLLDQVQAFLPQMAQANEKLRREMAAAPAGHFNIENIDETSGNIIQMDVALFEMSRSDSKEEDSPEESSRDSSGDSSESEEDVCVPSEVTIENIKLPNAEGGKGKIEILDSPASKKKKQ
UniProt Q99MR6: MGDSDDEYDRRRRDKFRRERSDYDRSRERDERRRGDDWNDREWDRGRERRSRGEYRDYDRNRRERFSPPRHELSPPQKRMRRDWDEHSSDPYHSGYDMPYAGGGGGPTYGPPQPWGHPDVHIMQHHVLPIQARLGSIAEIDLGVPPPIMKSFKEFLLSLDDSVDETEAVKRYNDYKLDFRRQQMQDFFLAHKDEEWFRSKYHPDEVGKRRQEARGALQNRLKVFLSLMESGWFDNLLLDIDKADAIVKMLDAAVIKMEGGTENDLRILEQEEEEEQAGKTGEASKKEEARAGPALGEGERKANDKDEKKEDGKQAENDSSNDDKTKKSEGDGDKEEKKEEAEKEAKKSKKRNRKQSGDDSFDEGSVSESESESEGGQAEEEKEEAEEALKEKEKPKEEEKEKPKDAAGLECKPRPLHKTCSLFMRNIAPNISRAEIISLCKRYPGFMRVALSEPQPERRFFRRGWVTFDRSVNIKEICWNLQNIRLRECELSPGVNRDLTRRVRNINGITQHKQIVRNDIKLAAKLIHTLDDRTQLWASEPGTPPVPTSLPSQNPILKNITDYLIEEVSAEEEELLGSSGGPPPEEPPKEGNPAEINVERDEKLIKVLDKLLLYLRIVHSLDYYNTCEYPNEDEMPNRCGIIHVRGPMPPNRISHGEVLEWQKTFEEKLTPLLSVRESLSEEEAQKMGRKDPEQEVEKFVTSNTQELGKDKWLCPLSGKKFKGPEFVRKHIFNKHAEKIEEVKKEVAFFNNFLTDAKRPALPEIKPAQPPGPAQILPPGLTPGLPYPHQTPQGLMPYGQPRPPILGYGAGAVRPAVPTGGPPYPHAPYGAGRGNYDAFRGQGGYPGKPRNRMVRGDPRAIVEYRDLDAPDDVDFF
UniProt Q99MB7: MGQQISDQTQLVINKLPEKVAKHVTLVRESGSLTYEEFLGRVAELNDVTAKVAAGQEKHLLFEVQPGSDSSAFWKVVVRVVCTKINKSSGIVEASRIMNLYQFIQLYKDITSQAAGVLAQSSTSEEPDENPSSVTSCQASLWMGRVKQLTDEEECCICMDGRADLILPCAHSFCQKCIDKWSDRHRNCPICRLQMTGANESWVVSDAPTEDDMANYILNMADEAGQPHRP
UniProt Q9CQS4: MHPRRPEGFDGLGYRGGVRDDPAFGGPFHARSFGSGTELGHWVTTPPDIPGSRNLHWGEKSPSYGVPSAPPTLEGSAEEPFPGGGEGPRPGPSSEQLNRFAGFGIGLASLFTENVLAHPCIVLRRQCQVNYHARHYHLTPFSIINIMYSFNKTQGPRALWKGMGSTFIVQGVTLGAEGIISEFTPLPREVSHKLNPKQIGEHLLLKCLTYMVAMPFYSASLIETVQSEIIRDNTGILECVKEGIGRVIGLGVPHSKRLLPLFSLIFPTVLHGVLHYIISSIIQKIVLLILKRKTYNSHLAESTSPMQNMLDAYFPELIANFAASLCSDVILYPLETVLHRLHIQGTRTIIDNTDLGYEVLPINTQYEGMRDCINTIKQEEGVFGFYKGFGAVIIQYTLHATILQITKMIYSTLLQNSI
UniProt Q9CQ22, whole entry: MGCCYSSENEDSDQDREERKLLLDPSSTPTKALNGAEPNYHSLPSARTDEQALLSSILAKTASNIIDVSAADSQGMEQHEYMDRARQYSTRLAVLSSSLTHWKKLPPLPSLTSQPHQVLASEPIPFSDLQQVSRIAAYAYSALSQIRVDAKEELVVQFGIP
UniProt Q99L13: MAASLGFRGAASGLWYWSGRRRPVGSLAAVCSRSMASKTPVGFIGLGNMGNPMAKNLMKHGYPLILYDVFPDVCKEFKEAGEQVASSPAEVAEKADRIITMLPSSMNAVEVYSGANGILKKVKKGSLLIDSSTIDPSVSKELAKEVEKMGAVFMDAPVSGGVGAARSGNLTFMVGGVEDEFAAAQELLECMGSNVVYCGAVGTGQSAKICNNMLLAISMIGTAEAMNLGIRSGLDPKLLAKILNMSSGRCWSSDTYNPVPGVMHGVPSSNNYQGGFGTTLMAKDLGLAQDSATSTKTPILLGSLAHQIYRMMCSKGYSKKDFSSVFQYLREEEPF
UniProt Q99P72: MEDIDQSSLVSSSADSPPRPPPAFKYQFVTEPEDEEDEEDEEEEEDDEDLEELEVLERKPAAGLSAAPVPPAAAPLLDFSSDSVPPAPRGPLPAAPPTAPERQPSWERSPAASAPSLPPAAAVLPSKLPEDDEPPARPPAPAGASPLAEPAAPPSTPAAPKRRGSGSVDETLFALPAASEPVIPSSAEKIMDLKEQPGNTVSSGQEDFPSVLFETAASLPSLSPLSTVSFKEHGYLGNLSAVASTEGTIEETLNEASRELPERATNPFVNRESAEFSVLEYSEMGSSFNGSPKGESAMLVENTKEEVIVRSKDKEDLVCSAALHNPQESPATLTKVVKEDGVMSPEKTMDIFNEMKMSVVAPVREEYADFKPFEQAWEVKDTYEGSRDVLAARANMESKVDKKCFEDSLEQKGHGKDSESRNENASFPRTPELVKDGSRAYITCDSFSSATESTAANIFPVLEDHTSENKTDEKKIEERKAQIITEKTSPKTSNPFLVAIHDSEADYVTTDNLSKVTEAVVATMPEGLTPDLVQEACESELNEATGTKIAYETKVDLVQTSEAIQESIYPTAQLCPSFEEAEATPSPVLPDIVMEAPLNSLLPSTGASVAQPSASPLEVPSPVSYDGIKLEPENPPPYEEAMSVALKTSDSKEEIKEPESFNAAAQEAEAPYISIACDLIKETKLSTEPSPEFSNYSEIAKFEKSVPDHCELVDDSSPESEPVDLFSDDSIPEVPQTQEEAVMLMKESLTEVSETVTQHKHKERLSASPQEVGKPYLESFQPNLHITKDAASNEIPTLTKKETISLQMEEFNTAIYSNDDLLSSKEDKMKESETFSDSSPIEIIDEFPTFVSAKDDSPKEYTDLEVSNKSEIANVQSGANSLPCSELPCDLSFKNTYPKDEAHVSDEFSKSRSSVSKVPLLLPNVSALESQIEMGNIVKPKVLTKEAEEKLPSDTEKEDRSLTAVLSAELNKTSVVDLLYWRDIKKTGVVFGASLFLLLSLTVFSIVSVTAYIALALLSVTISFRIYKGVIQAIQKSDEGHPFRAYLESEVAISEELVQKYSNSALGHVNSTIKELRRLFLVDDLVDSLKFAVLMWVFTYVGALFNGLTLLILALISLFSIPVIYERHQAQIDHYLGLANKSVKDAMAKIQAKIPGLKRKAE
UniProt Q99LN9: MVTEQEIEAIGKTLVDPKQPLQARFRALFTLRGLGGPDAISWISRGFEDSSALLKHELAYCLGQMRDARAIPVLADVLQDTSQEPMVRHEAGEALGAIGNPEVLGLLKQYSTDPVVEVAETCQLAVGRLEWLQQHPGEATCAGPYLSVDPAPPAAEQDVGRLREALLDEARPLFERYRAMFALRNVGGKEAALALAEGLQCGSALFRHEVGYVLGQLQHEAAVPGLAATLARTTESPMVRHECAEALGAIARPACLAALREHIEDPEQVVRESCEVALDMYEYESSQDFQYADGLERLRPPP
UniProt Q9CQZ5, whole entry: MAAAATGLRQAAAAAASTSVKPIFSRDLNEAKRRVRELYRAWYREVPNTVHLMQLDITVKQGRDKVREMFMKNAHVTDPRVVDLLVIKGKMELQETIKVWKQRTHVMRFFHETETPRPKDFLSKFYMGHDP
UniProt Q9CQU3: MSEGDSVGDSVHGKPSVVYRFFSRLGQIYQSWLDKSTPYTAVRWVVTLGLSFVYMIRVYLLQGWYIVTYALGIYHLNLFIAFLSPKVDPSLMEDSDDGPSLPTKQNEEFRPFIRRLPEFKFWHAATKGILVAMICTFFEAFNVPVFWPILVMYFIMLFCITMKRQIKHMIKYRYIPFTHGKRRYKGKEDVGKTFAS
UniProt Q9CWU9: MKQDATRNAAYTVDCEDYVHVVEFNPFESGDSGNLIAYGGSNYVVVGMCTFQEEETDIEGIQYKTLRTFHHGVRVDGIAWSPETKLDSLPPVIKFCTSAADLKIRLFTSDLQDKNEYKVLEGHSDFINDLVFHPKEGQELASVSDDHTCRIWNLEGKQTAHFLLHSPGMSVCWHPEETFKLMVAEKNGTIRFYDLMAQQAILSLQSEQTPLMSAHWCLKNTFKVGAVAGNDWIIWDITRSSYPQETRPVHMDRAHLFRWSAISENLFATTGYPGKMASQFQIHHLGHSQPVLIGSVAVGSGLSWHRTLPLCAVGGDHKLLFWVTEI
UniProt Q9CXE2, whole entry: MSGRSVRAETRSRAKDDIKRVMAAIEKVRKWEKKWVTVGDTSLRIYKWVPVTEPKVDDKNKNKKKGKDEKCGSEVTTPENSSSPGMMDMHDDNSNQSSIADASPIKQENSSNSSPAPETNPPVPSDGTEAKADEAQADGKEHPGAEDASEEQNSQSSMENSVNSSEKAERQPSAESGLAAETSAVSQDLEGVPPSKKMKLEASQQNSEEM
UniProt Q9CR29: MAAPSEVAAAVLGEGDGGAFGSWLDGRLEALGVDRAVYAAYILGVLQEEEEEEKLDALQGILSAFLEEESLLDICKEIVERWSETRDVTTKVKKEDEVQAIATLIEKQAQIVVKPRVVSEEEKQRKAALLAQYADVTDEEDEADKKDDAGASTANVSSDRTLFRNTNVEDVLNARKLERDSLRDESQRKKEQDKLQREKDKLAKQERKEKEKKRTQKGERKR
UniProt Q9CQU0: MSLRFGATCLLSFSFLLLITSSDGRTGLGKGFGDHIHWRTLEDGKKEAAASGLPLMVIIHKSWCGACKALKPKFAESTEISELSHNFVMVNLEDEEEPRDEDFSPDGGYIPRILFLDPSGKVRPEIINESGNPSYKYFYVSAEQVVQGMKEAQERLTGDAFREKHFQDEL
UniProt Q9CQN1: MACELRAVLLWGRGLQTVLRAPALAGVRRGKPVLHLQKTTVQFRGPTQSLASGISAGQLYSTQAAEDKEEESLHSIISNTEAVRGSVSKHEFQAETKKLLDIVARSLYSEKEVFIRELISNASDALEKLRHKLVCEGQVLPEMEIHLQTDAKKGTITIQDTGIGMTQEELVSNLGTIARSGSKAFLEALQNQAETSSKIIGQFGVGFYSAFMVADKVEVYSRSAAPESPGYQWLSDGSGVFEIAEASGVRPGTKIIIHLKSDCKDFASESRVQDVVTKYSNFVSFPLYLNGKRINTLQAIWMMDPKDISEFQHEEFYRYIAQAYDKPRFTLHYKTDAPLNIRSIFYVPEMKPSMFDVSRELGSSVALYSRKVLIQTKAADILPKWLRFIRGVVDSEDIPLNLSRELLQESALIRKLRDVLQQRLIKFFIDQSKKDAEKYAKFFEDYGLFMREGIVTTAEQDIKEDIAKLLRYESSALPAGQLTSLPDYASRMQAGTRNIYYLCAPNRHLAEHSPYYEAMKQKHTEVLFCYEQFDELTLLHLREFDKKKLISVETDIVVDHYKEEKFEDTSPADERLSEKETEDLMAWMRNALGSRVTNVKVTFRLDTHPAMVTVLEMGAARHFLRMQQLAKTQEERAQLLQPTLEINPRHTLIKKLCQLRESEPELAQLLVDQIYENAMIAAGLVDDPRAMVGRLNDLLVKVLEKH
UniProt Q9CQ79: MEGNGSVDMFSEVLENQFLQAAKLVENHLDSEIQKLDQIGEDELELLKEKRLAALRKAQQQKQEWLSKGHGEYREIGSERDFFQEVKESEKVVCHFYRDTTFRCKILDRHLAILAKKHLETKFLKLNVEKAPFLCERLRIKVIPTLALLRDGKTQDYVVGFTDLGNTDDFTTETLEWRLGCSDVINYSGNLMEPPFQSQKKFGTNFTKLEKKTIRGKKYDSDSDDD
UniProt Q9CXJ4: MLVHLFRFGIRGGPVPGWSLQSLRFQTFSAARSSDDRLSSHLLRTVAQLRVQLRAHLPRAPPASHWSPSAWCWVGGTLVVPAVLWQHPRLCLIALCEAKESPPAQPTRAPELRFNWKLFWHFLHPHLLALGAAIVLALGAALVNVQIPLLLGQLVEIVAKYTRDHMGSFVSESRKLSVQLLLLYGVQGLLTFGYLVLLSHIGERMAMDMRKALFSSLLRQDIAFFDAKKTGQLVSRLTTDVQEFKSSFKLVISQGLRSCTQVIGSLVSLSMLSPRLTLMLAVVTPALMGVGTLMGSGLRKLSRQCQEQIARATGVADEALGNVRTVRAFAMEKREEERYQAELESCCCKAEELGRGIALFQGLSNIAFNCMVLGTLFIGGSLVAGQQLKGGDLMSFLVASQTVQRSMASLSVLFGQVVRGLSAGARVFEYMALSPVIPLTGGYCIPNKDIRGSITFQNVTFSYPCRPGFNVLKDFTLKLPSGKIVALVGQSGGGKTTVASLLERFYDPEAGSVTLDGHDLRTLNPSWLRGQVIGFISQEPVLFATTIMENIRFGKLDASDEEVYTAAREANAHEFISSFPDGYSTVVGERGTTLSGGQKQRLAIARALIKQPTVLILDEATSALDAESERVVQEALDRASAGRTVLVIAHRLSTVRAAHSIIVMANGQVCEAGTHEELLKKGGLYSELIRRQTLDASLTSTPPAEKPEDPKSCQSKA

Each target was assayed with CN[C@@H]1C[C@H]2O[C@@](C)([C@@H]1OC)n1c3ccccc3c3c4c(c5c6ccccc6n2c5c31)C(=O)NC4 [staurosporine] (assay: log2 fold change of pooled soluble protein (PISA), ligand vs vehicle (log2 ratio); higher = more thermally stabilized). Conditions: ligand concentration: 20 uM; assay format: PISA pool 52.9/55.5/58.6 C.

Target	log2 fold change of pooled soluble protein
UniProt Q9CR39	-0.179
UniProt Q9CX66	-0.074
UniProt Q99KI0	-0.00589
UniProt Q99MR6	0.0647
UniProt Q99MZ7	-0.0387
UniProt Q99L20	-0.036
UniProt Q99MB7	-0.0142
UniProt Q9CQS4	0.178
UniProt Q9CQ48	0.0354
UniProt Q9CQ22	-0.142
UniProt Q99L13	-0.12
UniProt Q99LI9	0.084
UniProt Q99P72	0.232
UniProt Q99LN9	0.0477
UniProt Q9CQZ5	-0.154
UniProt Q9CQU3	-0.00876
UniProt Q9CR98	0.093
UniProt Q9CR21	-0.0554

Target	log2 fold change of pooled soluble protein
UniProt Q9CQM9	-0.0948
UniProt Q99JR5	0.0619
UniProt Q9CWU9	0.00947
UniProt Q9CXE2	0.2
UniProt Q9CR29	-0.0375
UniProt Q9CQU0	-0.00425
UniProt Q9CQE1	-0.276
UniProt Q9CQN1	0.0879
UniProt Q99L85	0.194
UniProt Q9CQ79	-0.0597
UniProt Q9CQA6	0.189
UniProt Q99KQ4	0.0354
UniProt Q9CXJ4	-0.0664
UniProt Q99LC5	0.0166
UniProt Q99JX3	0.106
UniProt Q99KN2	0.104
UniProt Q99PE8	0.252
UniProt Q99PG2	0.124

Looked up one by one from the list above:
Target	log2 fold change of pooled soluble protein
UniProt Q9CQN1	0.0879
UniProt Q9CR29	-0.0375
